One molecule from patent CN109734803A can be followed below.

Protein sequences, listed by entry. Tags and fused reporters are not part of them. Residues count along the entry.
UniProt P02144, residues 2-154: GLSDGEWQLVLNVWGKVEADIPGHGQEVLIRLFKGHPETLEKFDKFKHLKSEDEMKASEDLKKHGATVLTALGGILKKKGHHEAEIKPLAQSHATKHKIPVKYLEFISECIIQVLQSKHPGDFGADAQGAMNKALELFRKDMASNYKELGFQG

For the assay, the target named is Myo抗原(购买于Meridian公司) (UniProt P02144). The experiment in a line: sandwich lateral-flow card, M26 coated at 1 mg/ml as capture, Myo antigen at 200 and 50 ng/ml.

No constants are given. Whether binding was seen depends on the method and setting. Some results given as binding are weak or reduced against the parent protein; the word gives no strength.

B1: 单链抗体M26 (scFv, not shown: small tags and cut ends)
scFv: QVQLQQSGDDLVKPGASVKLSCKASGYTFTSYWINWIKQRPGQGLEWIGRIAPEGDSTYYNEMFKGKATLTVDTSSSTAYIQLSSLSSEDSAVYFCAREVRNAMDYWGQGTSVTVSSGGGGSGGGGSGGGGSDIQMNQSPSSLSASLGDTITITCHASQNIHVWLSWYLQKPGNITKLLIYEASNLHTGVPSRFSGSGSGTGFTLTISSLQPEDIATYYCQQGQRYPLTFGGGTKLEIK
For B1, the binding entry was “binds”.
